Assay results: publication PMC4853472, “Trapping mammalian protein complexes in viral particles” (Nature Communications, 2016)
No constants are given. Whether binding was seen depends on the method and setting. Some results given as binding are weak or reduced against the parent protein; the word gives no strength.

Chains of the proteins cited; added tags and fusions are not shown.
UniProt P23297: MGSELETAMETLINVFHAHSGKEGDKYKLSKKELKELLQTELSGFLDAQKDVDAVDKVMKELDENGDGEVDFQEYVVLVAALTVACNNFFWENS

T1: S100B (UniProt P04271)
T1 sequence: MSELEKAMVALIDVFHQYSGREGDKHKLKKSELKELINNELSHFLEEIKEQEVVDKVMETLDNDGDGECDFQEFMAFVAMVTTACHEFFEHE

B1: S100B (protein, UniProt P04271 1-92)
chain: T1 sequence

Experiments:
S100B = target: T1, S100B
S100A1 = S100A1 (UniProt P23297)

| Molecule | binding (S100B) | binding (S100A1) |
| --- | --- | --- |
| S100A1 (from UniProt P23297 1-94) | binds |  |
| B1 |  | binds |
